Results taken from ChEMBL document CHEMBL5674883, “The Heterochromatin Landscape in Migrating Cells and the Importance of H3K27me3 for Associated Transcriptome Alterations” (Cells, 2018).
The source gives many values for each of these; only a part stands here.

Amino acid sequences for entries named in this document (tags omitted).
UniProt Q61188, whole entry: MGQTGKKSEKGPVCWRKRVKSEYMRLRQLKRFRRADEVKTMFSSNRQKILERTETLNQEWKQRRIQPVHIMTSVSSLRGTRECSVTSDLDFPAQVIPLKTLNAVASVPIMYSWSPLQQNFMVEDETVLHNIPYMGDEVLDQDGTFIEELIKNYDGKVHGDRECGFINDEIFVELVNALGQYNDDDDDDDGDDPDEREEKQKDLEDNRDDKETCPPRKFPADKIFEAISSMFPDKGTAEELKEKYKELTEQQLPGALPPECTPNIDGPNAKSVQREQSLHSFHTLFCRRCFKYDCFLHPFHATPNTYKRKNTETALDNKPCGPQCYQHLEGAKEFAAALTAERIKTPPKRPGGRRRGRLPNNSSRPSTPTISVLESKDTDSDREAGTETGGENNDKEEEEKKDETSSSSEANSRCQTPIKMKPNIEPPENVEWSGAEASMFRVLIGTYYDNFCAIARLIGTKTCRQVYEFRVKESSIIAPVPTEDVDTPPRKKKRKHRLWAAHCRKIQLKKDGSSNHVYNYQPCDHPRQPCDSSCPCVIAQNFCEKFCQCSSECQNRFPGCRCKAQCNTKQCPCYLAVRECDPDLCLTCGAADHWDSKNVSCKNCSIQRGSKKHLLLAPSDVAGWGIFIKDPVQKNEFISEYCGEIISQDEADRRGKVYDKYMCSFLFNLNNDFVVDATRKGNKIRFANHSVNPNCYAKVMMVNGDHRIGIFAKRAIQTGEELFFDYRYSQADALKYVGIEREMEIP

What was measured:
Format in all cases: cell-based
[1] = target: T1, RNA polymerase II (Mus musculus) (UniProt P08775+Q8CFI7+P97760+A0A3Q4L2S8+Q80UW8+P61219+P62488+Q923G2+P60898+O08740+Q63871+P62876); test: Inhibition of RNA polymerase II in mouse B16-F1 migrating cells assessed as fold change in Elovl6-RNA stability at 0.1 mM measured by ChIP-seq analysis relative to control cells
[2] = target: T1, RNA polymerase II (Mus musculus); test: Inhibition of RNA polymerase II in mouse B16-F1 migrating cells assessed as fold change in Papola-RNA stability at 0.1 mM measured by ChIP-seq analysis relative to control cells
[3] = target: T1, RNA polymerase II (Mus musculus); test: Inhibition of RNA polymerase II in mouse B16-F1 migrating cells assessed as fold change in Usp45-RNA stability at 0.1 mM measured by ChIP-seq analysis relative to control cells
[4] = target: T1, RNA polymerase II (Mus musculus); test: Inhibition of RNA polymerase II in mouse B16-F1 migrating cells assessed as fold change in Mrpl23-RNA stability at 0.1 mM measured by ChIP-seq analysis relative to control cells
[5] = target: T1, RNA polymerase II (Mus musculus); test: Inhibition of RNA polymerase II in mouse B16-F1 migrating cells assessed as fold change in Rapgef4-RNA stability at 0.1 mM measured by ChIP-seq analysis relative to control cells
[6] = target: T1, RNA polymerase II (Mus musculus); test: Inhibition of RNA polymerase II in mouse B16-F1 migrating cells assessed as fold change in Lims1-RNA stability at 0.1 mM measured by ChIP-seq analysis relative to control cells
[7] = target: T1, RNA polymerase II (Mus musculus); test: Inhibition of RNA polymerase II in mouse B16-F1 migrating cells assessed as fold change in Maf1-RNA stability at 0.1 mM measured by ChIP-seq analysis relative to control cells
[8] = target: T1, RNA polymerase II (Mus musculus); test: Inhibition of RNA polymerase II in mouse B16-F1 migrating cells assessed as fold change in Ptbp3-RNA stability at 0.1 mM measured by ChIP-seq analysis relative to control cells
[9] = target: T1, RNA polymerase II (Mus musculus); test: Inhibition of RNA polymerase II in mouse B16-F1 migrating cells assessed as fold change in Dnm1l-RNA stability at 0.1 mM measured by ChIP-seq analysis relative to control cells
[10] = target: T1, RNA polymerase II (Mus musculus); test: Inhibition of RNA polymerase II in mouse B16-F1 migrating cells assessed as fold change in Alyref-RNA stability at 0.1 mM measured by ChIP-seq analysis relative to control cells
[11] = target: T1, RNA polymerase II (Mus musculus); test: Inhibition of RNA polymerase II in mouse B16-F1 migrating cells assessed as fold change in Anln-RNA stability at 0.1 mM measured by ChIP-seq analysis relative to control cells
[12] = target: T1, RNA polymerase II (Mus musculus); test: Inhibition of RNA polymerase II in mouse B16-F1 migrating cells assessed as fold change in B3gnt3-RNA stability at 0.1 mM measured by ChIP-seq analysis relative to control cells
[13] = target: T1, RNA polymerase II (Mus musculus); test: Inhibition of RNA polymerase II in mouse B16-F1 migrating cells assessed as fold change in Ska2-RNA stability at 0.1 mM measured by ChIP-seq analysis relative to control cells
[14] = target: T1, RNA polymerase II (Mus musculus); test: Inhibition of RNA polymerase II in mouse B16-F1 migrating cells assessed as fold change in Stil-RNA stability at 0.1 mM measured by ChIP-seq analysis relative to control cells
[15] = target: T1, RNA polymerase II (Mus musculus); test: Inhibition of RNA polymerase II in mouse B16-F1 migrating cells assessed as fold change in Uap1l1-RNA stability at 0.1 mM measured by ChIP-seq analysis relative to control cells
[16] = target: T1, RNA polymerase II (Mus musculus); test: Inhibition of RNA polymerase II in mouse B16-F1 migrating cells assessed as fold change in Arl5a-RNA stability at 0.1 mM measured by ChIP-seq analysis relative to control cells
[17] = target: T1, RNA polymerase II (Mus musculus); test: Inhibition of RNA polymerase II in mouse B16-F1 migrating cells assessed as fold change in Gtpbp10-RNA stability at 0.1 mM measured by ChIP-seq analysis relative to control cells
[18] = target: Histone-lysine N-methyltransferase EZH2 (Mus musculus) (UniProt Q61188); test: Inhibition of EZH2 in mouse B16-F1 migrating cells assessed as fold change in H3K27me3-buffered regulated Acbd5-mRNA expression at 3 uM measured by ChIP-seq analysis relative to control cells
[19] = target: Histone-lysine N-methyltransferase EZH2 (Mus musculus) (UniProt Q61188); test: Inhibition of EZH2 in mouse B16-F1 migrating cells assessed as fold change in H3K27me3-buffered regulated Pkhd1-mRNA expression at 3 uM measured by ChIP-seq analysis relative to control cells
[20] = target: Histone-lysine N-methyltransferase EZH2 (Mus musculus) (UniProt Q61188); test: Inhibition of EZH2 in mouse B16-F1 migrating cells assessed as fold change in H3K27me3-dependent regulated Thbs1-mRNA expression at 3 uM measured by ChIP-seq analysis relative to control cells
[21] = target: Histone-lysine N-methyltransferase EZH2 (Mus musculus) (UniProt Q61188); test: Inhibition of EZH2 in mouse B16-F1 migrating cells assessed as fold change in H3K27me3-buffered regulated Nr2f2-mRNA expression at 3 uM measured by ChIP-seq analysis relative to control cells
[22] = target: Histone-lysine N-methyltransferase EZH2 (Mus musculus) (UniProt Q61188); test: Inhibition of EZH2 in mouse B16-F1 migrating cells assessed as fold change in H3K27me3-independent regulated Narf-mRNA expression at 3 uM measured by ChIP-seq analysis relative to control cells
[23] = target: Histone-lysine N-methyltransferase EZH2 (Mus musculus) (UniProt Q61188); test: Inhibition of EZH2 in mouse B16-F1 migrating cells assessed as fold change in H3K27me3-buffered regulated Zfp57-mRNA expression at 3 uM measured by ChIP-seq analysis relative to control cells
[24] = target: Histone-lysine N-methyltransferase EZH2 (Mus musculus) (UniProt Q61188); test: Inhibition of EZH2 in mouse B16-F1 migrating cells assessed as fold change in H3K27me3-buffered regulated Bard1-mRNA expression at 3 uM measured by ChIP-seq analysis relative to control cells
[25] = target: Histone-lysine N-methyltransferase EZH2 (Mus musculus) (UniProt Q61188); test: Inhibition of EZH2 in mouse B16-F1 migrating cells assessed as fold change in H3K27me3-buffered regulated Nexn-mRNA expression at 3 uM measured by ChIP-seq analysis relative to control cells
[26] = target: Histone-lysine N-methyltransferase EZH2 (Mus musculus) (UniProt Q61188); test: Inhibition of EZH2 in mouse B16-F1 migrating cells assessed as fold change in H3K27me3-buffered regulated C130071C03Rik-mRNA expression at 3 uM measured by ChIP-seq analysis relative to control cells
[27] = target: Histone-lysine N-methyltransferase EZH2 (Mus musculus) (UniProt Q61188); test: Inhibition of EZH2 in mouse B16-F1 migrating cells assessed as fold change in H3K27me3-buffered regulated Prokr1-mRNA expression at 3 uM measured by ChIP-seq analysis relative to control cells
[28] = target: Histone-lysine N-methyltransferase EZH2 (Mus musculus) (UniProt Q61188); test: Inhibition of EZH2 in mouse B16-F1 migrating cells assessed as fold change in H3K27me3-independent regulated Ripor2-mRNA expression at 3 uM measured by ChIP-seq analysis relative to control cells
[29] = target: Histone-lysine N-methyltransferase EZH2 (Mus musculus) (UniProt Q61188); test: Inhibition of EZH2 in mouse B16-F1 migrating cells assessed as fold change in H3K27me3-independent regulated Prelid2-mRNA expression at 3 uM measured by ChIP-seq analysis relative to control cells
[30] = target: Histone-lysine N-methyltransferase EZH2 (Mus musculus) (UniProt Q61188); test: Inhibition of EZH2 in mouse B16-F1 migrating cells assessed as fold change in H3K27me3-independent regulated Mphosph8-mRNA expression at 3 uM measured by ChIP-seq analysis relative to control cells

OC[C@H]1O[C@@H](n2cnc3cc(Cl)c(Cl)cc32)[C@H](O)[C@@H]1O
log2FC [1]: -0.46
log2FC [2]: -0.43
log2FC [3]: -0.62
log2FC [4]: 0.44
log2FC [5]: -0.44
log2FC [6]: -0.46
log2FC [7]: 0.43
log2FC [8]: -0.79
log2FC [9]: -0.5
log2FC [10]: -0.87
log2FC [11]: -0.5
log2FC [12]: 0.61
log2FC [13]: -0.77
log2FC [14]: -0.71
log2FC [15]: 0.4
log2FC [16]: -0.46
log2FC [17]: -1.19

CCCc1cc(C)[nH]c(=O)c1CNC(=O)c1cc(-c2ccnc(N3CCN(C)CC3)c2)cc2c1cnn2C(C)C
log2FC [18]: -0.38
log2FC [19]: -1.27
log2FC [20]: 0.27
log2FC [21]: -0.77
log2FC [22]: -0.78
log2FC [23]: -0.7
log2FC [24]: -0.44
log2FC [25]: -0.49
log2FC [26]: -0.95
log2FC [27]: -0.64
log2FC [28]: -1.23
log2FC [29]: 0.58
log2FC [30]: -0.6
